Results taken from patent US8937058B2, “17-hydroxy-19-nor-21-carboxylic acid-steroid γ-lactone derivative, use thereof, and medicament containing the derivative” (priority 2007, dated 2015).
At least one structure is not confirmed: it was looked up by name or label, or the drawing left a doubt.

By UniProt entry, the sequences of proteins in these tests, tags left out. Where a name states a change or a piece, a line headed by the entry shows the natural chain unless it says otherwise.
UniProt P08235: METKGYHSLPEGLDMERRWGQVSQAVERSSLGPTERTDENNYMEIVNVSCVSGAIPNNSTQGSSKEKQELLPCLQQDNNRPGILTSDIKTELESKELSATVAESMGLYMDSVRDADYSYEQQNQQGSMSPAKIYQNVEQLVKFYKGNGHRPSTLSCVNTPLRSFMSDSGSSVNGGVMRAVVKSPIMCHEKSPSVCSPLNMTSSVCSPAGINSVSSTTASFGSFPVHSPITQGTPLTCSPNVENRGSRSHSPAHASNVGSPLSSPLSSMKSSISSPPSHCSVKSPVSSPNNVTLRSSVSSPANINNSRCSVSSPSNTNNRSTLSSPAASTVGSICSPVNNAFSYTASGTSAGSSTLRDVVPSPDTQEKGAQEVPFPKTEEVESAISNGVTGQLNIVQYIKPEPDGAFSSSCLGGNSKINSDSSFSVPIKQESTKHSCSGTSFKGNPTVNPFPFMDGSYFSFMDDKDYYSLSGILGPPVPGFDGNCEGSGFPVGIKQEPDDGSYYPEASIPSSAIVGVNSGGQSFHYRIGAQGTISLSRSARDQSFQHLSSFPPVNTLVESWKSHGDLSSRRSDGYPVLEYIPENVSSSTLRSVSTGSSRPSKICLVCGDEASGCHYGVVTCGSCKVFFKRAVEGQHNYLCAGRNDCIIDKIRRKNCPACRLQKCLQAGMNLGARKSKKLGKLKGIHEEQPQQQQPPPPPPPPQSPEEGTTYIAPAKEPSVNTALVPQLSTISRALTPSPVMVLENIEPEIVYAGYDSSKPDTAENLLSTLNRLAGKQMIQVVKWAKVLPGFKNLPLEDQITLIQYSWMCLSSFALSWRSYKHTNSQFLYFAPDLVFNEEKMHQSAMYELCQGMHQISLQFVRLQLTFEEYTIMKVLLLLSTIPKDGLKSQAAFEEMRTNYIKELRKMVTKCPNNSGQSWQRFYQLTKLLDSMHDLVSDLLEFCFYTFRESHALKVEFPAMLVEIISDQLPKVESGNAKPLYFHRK
UniProt P10275, whole entry, species assumed: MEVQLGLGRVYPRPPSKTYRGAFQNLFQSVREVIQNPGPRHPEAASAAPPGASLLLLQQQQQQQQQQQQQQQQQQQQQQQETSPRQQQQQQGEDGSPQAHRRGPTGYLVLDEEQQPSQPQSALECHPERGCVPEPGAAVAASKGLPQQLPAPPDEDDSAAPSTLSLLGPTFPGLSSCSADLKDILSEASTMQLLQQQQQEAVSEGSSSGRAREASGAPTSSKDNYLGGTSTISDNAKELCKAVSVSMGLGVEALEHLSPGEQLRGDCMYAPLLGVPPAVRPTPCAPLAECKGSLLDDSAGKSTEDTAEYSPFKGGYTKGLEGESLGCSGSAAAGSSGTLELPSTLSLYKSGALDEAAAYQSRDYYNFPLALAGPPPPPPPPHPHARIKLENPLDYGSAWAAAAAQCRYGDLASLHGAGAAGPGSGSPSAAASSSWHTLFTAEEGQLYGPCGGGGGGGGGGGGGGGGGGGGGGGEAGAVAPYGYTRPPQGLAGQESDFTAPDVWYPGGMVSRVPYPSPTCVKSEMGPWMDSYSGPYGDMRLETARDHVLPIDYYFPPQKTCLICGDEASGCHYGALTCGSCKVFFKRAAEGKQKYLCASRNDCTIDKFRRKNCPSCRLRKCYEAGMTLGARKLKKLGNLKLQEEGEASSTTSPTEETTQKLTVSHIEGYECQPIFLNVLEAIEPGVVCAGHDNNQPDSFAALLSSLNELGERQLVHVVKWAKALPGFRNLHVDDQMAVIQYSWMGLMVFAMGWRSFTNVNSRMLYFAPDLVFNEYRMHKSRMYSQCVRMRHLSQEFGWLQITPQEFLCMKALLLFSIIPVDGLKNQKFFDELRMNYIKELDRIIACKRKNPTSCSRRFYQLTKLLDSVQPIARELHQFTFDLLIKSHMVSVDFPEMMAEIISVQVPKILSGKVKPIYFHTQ
UniProt P06401, whole entry, species assumed: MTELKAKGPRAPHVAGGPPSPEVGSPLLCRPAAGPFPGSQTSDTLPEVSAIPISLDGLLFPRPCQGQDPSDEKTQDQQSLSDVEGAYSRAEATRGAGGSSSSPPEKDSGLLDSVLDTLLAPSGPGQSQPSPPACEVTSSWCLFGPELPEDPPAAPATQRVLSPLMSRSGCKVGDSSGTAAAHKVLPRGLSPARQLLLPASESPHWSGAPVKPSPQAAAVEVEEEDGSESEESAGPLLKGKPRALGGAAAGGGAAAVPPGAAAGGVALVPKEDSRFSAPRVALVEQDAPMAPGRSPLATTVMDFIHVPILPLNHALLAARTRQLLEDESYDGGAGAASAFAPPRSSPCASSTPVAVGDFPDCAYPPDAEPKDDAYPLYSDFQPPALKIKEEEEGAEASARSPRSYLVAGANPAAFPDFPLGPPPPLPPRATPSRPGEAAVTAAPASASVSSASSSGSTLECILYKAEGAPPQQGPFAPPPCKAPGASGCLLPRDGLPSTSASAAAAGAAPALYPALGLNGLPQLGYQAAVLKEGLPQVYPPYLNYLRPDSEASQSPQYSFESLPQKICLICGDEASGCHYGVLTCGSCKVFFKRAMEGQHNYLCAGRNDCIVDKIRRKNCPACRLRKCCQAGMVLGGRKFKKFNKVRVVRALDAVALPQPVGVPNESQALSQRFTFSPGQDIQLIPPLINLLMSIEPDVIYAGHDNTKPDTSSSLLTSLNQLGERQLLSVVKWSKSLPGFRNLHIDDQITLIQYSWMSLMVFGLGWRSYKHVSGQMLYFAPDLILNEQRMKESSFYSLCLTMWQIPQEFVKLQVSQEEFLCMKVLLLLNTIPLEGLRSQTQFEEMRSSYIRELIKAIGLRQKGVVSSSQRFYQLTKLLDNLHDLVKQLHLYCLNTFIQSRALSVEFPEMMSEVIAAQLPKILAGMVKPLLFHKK

Experiments:
[1] = target: mineralocorticoid receptor (Homo sapiens (Human), UniProt P08235); test: Mineralocorticoid receptor binding test (displacement of 3H-aldosterone, cytosol from Hi5 insect cells); details: reference substance 3H-aldosterone
Method: 2. Mineralocorticoid Receptor Binding Test:
The test was carried out as in 1., with the following modifications: cytosol from mineralocorticoid receptor-expressing insect cells (Hi5) was used, and the reference substance was ^3H-aldosterone.

[2] = target: androgen receptor (Homo sapiens (Human), UniProt P10275); details: reference substance 3H-testosterone
Method: 3. Androgen Receptor Binding Test:
The test was carried out as in 1., with the following modifications: cytosol from androgen receptor-expressing insect cells (Hi5) was used, and the reference substance was ^3H-testosterone.

[3] = target: progesterone receptor (Homo sapiens (Human), UniProt P06401)

Row | SMILES | Mineralocorticoid receptor (MR) Competition factor [1] | Androgen receptor Competition factor [2] | Progesterone receptor (PR) Competition factor ([3]; CF of 1 = affinity of progesterone, CF >1 lower affinity) | CF PR/CF MR ([3]; ratio of the competition factors CF(PR) and CF(MR))
1 | C[C@]12CC[C@H]3[C@@H](C[C@@H](CO)C4=CC(=O)CC[C@@H]43)[C@@H]1CC[C@@]21C=CC(=O)O1 [Example 17, 17β-Hydroxy-6β-hydroxymethylene-19-nor-17α-pregna-4,20(Z)-dien-3-one-21-carboxylic acid γ-lactone] | 4.0 | – | – | –
2 | C[C@]12CC[C@H]3[C@@H](CC4(CC4)C4=CC(=O)CC[C@@H]43)[C@@H]1CC[C@@]21C=CC(=O)O1 [Example 18, 6,6-(1,2-Ethanediyl)-17β-hydroxy-19-nor-17α-pregna-4,20(Z)-dien-3-one-21-carboxylic acid γ-lactone] | 1.9 | 1.9 | – | –
3 | CC[C@]12CC[C@H]3[C@@H](CC4(CC4)C4=CC(=O)CC[C@@H]43)[C@@H]1CC[C@@]21C=CC(=O)O1 [Example 16, 6,6-(1,2-Ethanediyl)-17β-hydroxy-18-methyl-19-nor-17α-pregna-4,20(Z)-dien-3-one-21-carboxylic acid γ-lactone] | 1.2 | 1.8 | – | –
4 | CC[C@]12CC[C@H]3[C@@H](C[C@@H](CO)C4=CC(=O)CC[C@@H]43)[C@@H]1CC[C@@]21C=CC(=O)O1 [Example 15] | 8.7 | 1000.0 | 1000.00 | PR inactive
